This note sets out measurements from article PMC4881172.

Sequences of proteins named here, by UniProt entry; tags and fusion partners are left off.
UniProt P10415: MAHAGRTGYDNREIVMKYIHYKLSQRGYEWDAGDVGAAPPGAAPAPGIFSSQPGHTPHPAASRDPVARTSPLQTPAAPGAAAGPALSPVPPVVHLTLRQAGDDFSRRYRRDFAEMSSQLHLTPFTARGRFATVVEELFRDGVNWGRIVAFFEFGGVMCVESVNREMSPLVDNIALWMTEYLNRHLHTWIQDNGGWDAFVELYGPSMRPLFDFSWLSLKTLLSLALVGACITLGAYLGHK
UniProt P49950: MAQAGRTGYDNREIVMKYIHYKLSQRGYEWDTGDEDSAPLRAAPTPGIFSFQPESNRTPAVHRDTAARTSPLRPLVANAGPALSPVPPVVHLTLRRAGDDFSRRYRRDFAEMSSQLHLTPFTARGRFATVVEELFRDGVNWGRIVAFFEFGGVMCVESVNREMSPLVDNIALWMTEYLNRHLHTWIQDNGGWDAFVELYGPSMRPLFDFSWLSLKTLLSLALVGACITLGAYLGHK
UniProt Q14457: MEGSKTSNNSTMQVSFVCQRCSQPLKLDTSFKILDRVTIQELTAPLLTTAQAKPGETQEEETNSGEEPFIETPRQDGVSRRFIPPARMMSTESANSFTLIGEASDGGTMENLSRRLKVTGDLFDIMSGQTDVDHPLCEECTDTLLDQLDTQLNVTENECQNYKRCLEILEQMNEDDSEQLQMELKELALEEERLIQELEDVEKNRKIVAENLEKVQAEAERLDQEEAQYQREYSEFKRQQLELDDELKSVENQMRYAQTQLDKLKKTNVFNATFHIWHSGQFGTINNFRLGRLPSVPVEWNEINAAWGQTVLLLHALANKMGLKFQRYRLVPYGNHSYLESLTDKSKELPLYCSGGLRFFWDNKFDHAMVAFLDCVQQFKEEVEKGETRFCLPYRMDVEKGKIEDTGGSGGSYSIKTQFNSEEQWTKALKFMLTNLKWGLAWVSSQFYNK
UniProt Q91XJ1: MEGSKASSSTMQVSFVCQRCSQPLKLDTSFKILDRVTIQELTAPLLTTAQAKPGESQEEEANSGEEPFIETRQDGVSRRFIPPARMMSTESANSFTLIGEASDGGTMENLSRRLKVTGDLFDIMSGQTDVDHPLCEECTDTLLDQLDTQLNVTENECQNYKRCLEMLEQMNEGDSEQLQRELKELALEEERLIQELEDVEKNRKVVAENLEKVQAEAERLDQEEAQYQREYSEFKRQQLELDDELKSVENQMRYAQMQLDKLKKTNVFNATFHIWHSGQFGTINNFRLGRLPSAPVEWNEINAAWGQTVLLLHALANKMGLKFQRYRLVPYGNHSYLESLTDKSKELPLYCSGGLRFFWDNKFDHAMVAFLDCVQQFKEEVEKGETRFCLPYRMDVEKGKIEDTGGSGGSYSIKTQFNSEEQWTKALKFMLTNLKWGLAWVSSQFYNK

Test [1] deals with Yellow fluorescent protein (YFP)-Bcl-2 (UniProt P10415). The test is described as follows: FRET or BRET; live H9c2 cells stably co-expressing CFP-BECN1 and YFP-Bcl-2, glucose-free Tyrode's solution at 37 °C with or without 25, 50 or 100 uM ginsenoside Rg1; microplate reader every 10 min, excitation 436 nm, emission 527 nm.
In test [2] the target is Bcl-2 (rat (endogenous in H9c2)) (UniProt P49950). The test is described as follows: co-IP; whole-cell lysates of H9c2 cells starved 0-240 min with or without 100 uM ginsenoside Rg1; 10 ug antibody with 1 ml lysate at 4 °C overnight, Protein A/G-agarose 4 h, Western blot (methods: IP anti-Beclin1, blot anti-Bcl-2; legend of Fig. 5: IP anti-Bcl-2, blot anti-Beclin1). A general note: Immunoblotting shows a protein as a band on a membrane.

Results are given in words; binding and its absence hold for the method and conditions named. Binding seen in cells or lysates may run through a third protein. Some results given as binding are weak or reduced against the parent protein; the word gives no strength.

In the case of “Cyan fluorescent protein (CFP)-BECN1 (from UniProt Q14457 1-450)”, the binding result in test [1] was “binds”.

As to Beclin1 (from UniProt Q91XJ1 1-448), the binding entry in test [2] is “binds”.
